Three compounds from patent EP3763372B1, “TREATMENTS COMPRISING A COMBINATION OF DEXTROMETHORPHAN AND BUPROPION” (dated 2026) can be followed below.

Sequences of proteins named here, by UniProt entry; tags and fusion partners are left off.
UniProt P10635, whole entry: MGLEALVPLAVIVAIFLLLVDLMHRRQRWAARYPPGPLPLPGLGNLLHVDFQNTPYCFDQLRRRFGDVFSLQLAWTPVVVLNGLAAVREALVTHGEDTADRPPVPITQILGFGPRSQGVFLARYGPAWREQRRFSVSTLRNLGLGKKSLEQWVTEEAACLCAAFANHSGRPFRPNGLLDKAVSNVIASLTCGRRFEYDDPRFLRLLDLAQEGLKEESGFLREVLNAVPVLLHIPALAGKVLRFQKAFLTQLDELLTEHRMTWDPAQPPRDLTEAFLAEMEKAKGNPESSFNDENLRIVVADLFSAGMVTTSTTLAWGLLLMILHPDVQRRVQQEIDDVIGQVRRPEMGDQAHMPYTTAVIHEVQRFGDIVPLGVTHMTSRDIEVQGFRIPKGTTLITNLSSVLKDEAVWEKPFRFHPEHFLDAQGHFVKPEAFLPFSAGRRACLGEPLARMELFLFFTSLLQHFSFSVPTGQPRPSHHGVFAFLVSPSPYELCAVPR

For data set [1], the target named is metabolism of dextromethorphan in human liver microsomes (Homo sapiens, UniProt P10635). Kind of data set: Inhibition of dextromethorphan metabolism (dextrorphan formation) in human liver microsomes. The settings on record: read-out: Mean IC50; human liver microsomes 0.5 mg/mL, dextromethorphan 5 µM, 37 °C, 2 mM NADPH, pH 7.4. A general note: Microsomes from liver hold many membrane-bound enzymes, among them those of drug oxidation.

Data set [2] can be described thus: Pharmacokinetic study in human subjects given dextromethorphan alone or with bupropion; plasma concentrations by LC-MS/MS. The settings on record: Day 8, after bupropion administration (150 mg, with dextromethorphan); label = analyte in plasma.

The structures given here were assigned with low confidence; some may be wrong. Bounds are passed on as bounds.

As a reminder, the IC50 is the concentration at which inhibition is half-maximal. `C[C@H]1NC(C)(C)CO[C@]1(O)c1cccc(Cl)c1`: in data set [1], the IC50 was determined as 8.2 µM.
`C[C@@H](NC(C)(C)C)[C@H](O)c1cccc(Cl)c1` (relative stereo): the average plasma concentrations in data set [2] was no less than 100 ng/mL. Moreover, the IC50 in data set [1] turned out to be 3.9 µM.
For `C[C@H](NC(C)(C)C)[C@H](O)c1cccc(Cl)c1` (relative stereo), in that order: no less than 20 ng/mL and 1.4 µM.
